{"sequences": {"note": "Amino acid sequences for entries named in this document (tags omitted). Residues count along the entry.", "UniProt Q6PHU5, residues 74-825": "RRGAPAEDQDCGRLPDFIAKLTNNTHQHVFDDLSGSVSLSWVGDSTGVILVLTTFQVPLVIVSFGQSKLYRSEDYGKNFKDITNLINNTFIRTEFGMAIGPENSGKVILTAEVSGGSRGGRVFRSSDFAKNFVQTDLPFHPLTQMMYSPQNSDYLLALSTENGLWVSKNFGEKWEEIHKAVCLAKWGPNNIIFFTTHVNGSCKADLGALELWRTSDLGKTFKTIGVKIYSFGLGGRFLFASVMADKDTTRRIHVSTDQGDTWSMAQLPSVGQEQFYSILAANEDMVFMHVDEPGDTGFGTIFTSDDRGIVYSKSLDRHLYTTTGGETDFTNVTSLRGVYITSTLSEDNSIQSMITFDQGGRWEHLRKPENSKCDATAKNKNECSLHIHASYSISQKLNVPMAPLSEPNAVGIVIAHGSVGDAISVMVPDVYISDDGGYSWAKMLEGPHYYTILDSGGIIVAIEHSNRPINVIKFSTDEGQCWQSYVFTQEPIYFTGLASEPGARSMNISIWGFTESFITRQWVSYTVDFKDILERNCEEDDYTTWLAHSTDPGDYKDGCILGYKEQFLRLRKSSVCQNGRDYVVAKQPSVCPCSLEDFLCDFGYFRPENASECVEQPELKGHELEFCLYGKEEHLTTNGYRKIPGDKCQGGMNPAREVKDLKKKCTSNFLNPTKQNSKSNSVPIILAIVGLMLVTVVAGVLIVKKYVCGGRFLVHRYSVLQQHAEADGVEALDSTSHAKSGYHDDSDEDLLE"}, "source": "paper PMC5509376", "key": {"[1]": {"biological_target": "sortilin (mouse (endogenous in N2a neuroblastoma cells)) (UniProt Q6PHU5)", "assay": "co-IP"}, "[2]": {"biological_target": "cellular prion protein (mouse) (UniProt P04925)", "assay": "co-IP"}, "[3]": {"biological_target": "cellular prion protein of mouse brain (mouse (endogenous in mouse brain)) (UniProt P04925)", "assay": "co-IP; mouse brain homogenate; SAF61 anti-PrP Ab"}}, "note": "These are yes or no findings as the source states them, for the method shown. In cells and extracts the contact can be indirect. Some binding calls cover weakened binding; strength is not graded here."}
{"substance": "abnormally folded isoform of prion protein (from UniProt P04925 23-230)", "values": [{"measurement": "binding", "setting": "[1]", "result": "binds"}]}
{"substance": "cellular prion protein (from UniProt P04925 23-230)", "values": [{"measurement": "binding", "setting": "[1]", "result": "binds"}]}
{"substance": "sortilin (from UniProt Q6PHU5 74-825) (receptor)", "values": [{"measurement": "binding", "setting": "[2]", "result": "binds"}]}
{"substance": "sortilin of mouse brain (from UniProt Q6PHU5 74-825) (receptor)", "values": [{"measurement": "binding", "setting": "[3]", "result": "binds"}]}
